In one assay the target is HA-tagged HIF-1α (human) (UniProt Q16665). Description: co-IP; transfected 293T cells, 10 μM MG132 for 8 h; 1 mg lysate in IP buffer (5 mM EDTA, 50 mM Tris-Cl, 100 mM NaCl, 1% NP-40) with streptavidin beads or HA beads, 16 h, 4 °C; western blotting; with or without F/S-FABP5 overexpression for the FIH blot. On the technique in general: In western blotting, separated proteins are transferred to a membrane and probed.

Amino acid sequences for entries named in this document (tags omitted). A change or cut given only in a name is not applied to a line headed by its entry. Residues count along the entry.
UniProt Q16665: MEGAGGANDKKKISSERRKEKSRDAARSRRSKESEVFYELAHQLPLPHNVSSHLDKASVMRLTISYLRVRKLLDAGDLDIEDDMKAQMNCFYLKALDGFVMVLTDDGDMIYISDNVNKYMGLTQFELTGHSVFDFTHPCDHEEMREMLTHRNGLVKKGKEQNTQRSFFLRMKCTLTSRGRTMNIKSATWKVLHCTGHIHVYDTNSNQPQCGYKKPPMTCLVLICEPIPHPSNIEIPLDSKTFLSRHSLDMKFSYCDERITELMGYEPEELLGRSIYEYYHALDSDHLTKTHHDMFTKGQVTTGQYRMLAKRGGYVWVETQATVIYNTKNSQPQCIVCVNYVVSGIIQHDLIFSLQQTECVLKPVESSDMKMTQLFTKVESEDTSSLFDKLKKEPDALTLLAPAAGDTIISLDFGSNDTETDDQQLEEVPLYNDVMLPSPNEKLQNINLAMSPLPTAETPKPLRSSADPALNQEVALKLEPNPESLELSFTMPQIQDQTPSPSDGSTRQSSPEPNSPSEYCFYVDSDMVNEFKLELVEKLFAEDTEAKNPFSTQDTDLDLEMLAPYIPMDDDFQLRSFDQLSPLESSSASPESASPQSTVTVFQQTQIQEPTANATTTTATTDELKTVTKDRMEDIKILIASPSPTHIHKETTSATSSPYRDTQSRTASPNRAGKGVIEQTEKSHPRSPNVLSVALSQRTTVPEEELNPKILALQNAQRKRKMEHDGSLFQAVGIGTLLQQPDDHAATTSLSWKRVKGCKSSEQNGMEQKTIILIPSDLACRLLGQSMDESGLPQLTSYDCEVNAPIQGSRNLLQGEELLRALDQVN
GFP-HIF-1α-N-terminal (aa: 1–400): residues 1-400 of Q16665
UniProt Q01469: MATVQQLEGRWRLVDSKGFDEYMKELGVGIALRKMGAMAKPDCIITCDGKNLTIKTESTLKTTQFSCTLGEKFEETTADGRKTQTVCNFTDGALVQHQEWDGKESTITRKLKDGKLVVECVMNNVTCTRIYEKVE

The target of assay [1] is Flag/Streptavidin Binding Peptide-FABP5 (human) (UniProt Q01469). Described as above.

No constants are given. Whether binding was seen depends on the method and setting. In cells and extracts the contact can be indirect. Some entries that bind do so weakly or less than the wild type.

“Flag/Streptavidin Binding Peptide-FABP5 (from UniProt Q01469 1-135)”: in the assay with HA-tagged HIF-1α (human), the binding result is recorded as “binds”.
Regarding “GFP-HIF-1α-N-terminal (aa: 1–400) (from UniProt Q16665-1 1-400) (domain or fragment)”, in assay [1], the binding entry is “binds”.
